No constants are given. Whether binding was seen depends on the method and setting. In cells and extracts the contact can be indirect. Here binding means that the protein was enriched with, or labelled near, the bait; the list need not be complete.
B1: API5 (protein, UniProt Q9BZZ5 1-524)
chain: MPTVEELYRNYGILADATEQVGQHKDAYQVILDGVKGGTKEKRLAAQFIPKFFKHFPELADSAINAQLDLCEDEDVSIRRQAIKELPQFATGENLPRVADILTQLLQTDDSAEFNLVNNALLSIFKMDAKGTLGGLFSQILQGEDIVRERAIKFLSTKLKTLPDEVLTKEVEELILTESKKVLEDVTGEEFVLFMKILSGLKSLQTVSGRQQLVELVAEQADLEQTFNPSDPDCVDRLLQCTRQAVPLFSKNVHSTRFVTYFCEQVLPNLGTLTTPVEGLDIQLEVLKLLAEMSSFCGDMEKLETNLRKLFDKLLEYMPLPPEEAENGENAGNEEPKLQFSYVECLLYSFHQLGRKLPDFLTAKLNAEKLKDFKIRLQYFARGLQVYIRQLRLALQGKTGEALKTEENKIKVVALKITNNINVLIKDLFHIPPSYKSTVTLSWKPVQKVEIGQKRASEDTTSGSPPKKSSAGPKRDARQIYNPPSGKYSSNLGNFNYEQRGAFRGSRGGRGWGTRGNRSRGRLY
B2: HNRNPH3 (protein, UniProt P31942 1-346)
chain: MDWVMKHNGPNDASDGTVRLRGLPFGCSKEEIVQFFQGLEIVPNGITLTMDYQGRSTGEAFVQFASKEIAENALGKHKERIGHRYIEIFRSSRSEIKGFYDPPRRLLGQRPGPYDRPIGGRGGYYGAGRGSMYDRMRRGGDGYDGGYGGFDDYGGYNNYGYGNDGFDDRMRDGRGMGGHGYGGAGDASSGFHGGHFVHMRGLPFRATENDIANFFSPLNPIRVHIDIGADGRATGEADVEFVTHEDAVAAMSKDKNNMQHRYIELFLNSTPGGGSGMGGSGMGGYGRDGMDNQGGYGSVGRMGMGNNYSGGYGTPDGLGGYGRGGGGSGGYYGQGGMSGGGWRGMY
B3: ANXA6 (protein, UniProt P08133 1-673)
chain: MAKPAQGAKYRGSIHDFPGFDPNQDAEALYTAMKGFGSDKEAILDIITSRSNRQRQEVCQSYKSLYGKDLIADLKYELTGKFERLIVGLMRPPAYCDAKEIKDAISGIGTDEKCLIEILASRTNEQMHQLVAAYKDAYERDLEADIIGDTSGHFQKMLVVLLQGTREEDDVVSEDLVQQDVQDLYEAGELKWGTDEAQFIYILGNRSKQHLRLVFDEYLKTTGKPIEASIRGELSGDFEKLMLAVVKCIRSTPEYFAERLFKAMKGLGTRDNTLIRIMVSRSELDMLDIREIFRTKYEKSLYSMIKNDTSGEYKKTLLKLSGGDDDAAGQFFPEAAQVAYQMWELSAVARVELKGTVRPANDFNPDADAKALRKAMKGLGTDEDTIIDIITHRSNVQRQQIRQTFKSHFGRDLMTDLKSEISGDLARLILGLMMPPAHYDAKQLKKAMEGAGTDEKALIEILATRTNAEIRAINEAYKEDYHKSLEDALSSDTSGHFRRILISLATGHREEGGENLDQAREDAQVAAEILEIADTPSGDKTSLETRFMTILCTRSYPHLRRVFQEFIKMTNYDVEHTIKKEMSGDVRDAFVAIVQSVKNKPLFFADKLYKSMKGAGTDEKTLTRIMVSRSEIDLLNIRREFIEKYDKSLHQAIEGDTSGDFLKALLALCGGED
B4: SMNDC1 (protein, UniProt O75940 1-238)
chain: MSEDLAKQLASYKAQLQQVEAALSGNGENEDLLKLKKDLQEVIELTKDLLSTQPSETLASSDSFASTQPTHSWKVGDKCMAVWSEDGQCYEAEIEEIDEENGTAAITFAGYGNAEVTPLLNLKPVEEGRKAKEDSGNKPMSKKEMIAQQREYKKKKALKKAQRIKELEQEREDQKVKWQQFNNRAYSKNKKGQVKRSIFASPESVTGKVGVGTCGIADKPMTQYQDTSKYNVRHLMPQ
B5: RBM3, the cold-inducible mRNA binding protein (protein, UniProt P98179 1-157)
chain: MSSEEGKLFVGGLNFNTDEQALEDHFSSFGPISEVVVVKDRETQRSRGFGFITFTNPEHASVAMRAMNGESLDGRQIRVDHAGKSARGTRGGGFGAHGRGRSYSRGGGDQGYGSGRYYDSRPGGYGYGYGRSRDYNGRNQGGYDRYSGGNYRDNYDN
B6: SARNP (protein, UniProt P82979 1-210)
chain: MATETVELHKLKLAELKQECLARGLETKGIKQDLIHRLQAYLEEHAEEEANEEDVLGDETEEEETKPIELPVKEEEPPEKTVDVAAEKKVVKITSEIPQTERMQKRAERFNVPVSLESKKAARAARFGISSVPTKGLSSDNKPMVNLDKLKERAQRFGLNVSSISRKSEDDEKLKKRKERFGIVTSSAGTGTTEDTEAKKRKRAERFGIA
B7: NUCKS1 (protein, UniProt Q9H1E3 1-243)
chain: MSRPVRNRKVVDYSQFQESDDADEDYGRDSGPPTKKIRSSPREAKNKRRSGKNSQEDSEDSEDKDVKTKKDDSHSAEDSEDEKEDHKNVRQQRQAASKAASKQREMLMEDVGSEEEQEEEDEAPFQEKDSGSDEDFLMEDDDDSDYGSSKKKNKKMVKKSKPERKEKKMPKPRLKATVTPSPVKGKGKVGRPTASKASKEKTPSPKEEDEEPESPPEKKTSTSPPPEKSGDEGSEDEAPSGED
B8: eukaryotic translation initiation factor 2A (EIF2A) (protein, UniProt Q9BY44 1-585)
chain: MAPSTPLLTVRGSEGLYMVNGPPHFTESTVFPRESGKNCKVCIFSKDGTLFAWGNGEKVNIISVTNKGLLHSFDLLKAVCLEFSPKNTVLATWQPYTTSKDGTAGIPNLQLYDVKTGTCLKSFIQKKMQNWCPSWSEDETLCARNVNNEVHFFENNNFNTIANKLHLQKINDFVLSPGPQPYKVAVYVPGSKGAPSFVRLYQYPNFAGPHAALANKSFFKADKVTMLWNKKATAVLVIASTDVDKTGASYYGEQTLHYIATNGESAVVQLPKNGPIYDVVWNSSSTEFCAVYGFMPAKATIFNLKCDPVFDFGTGPRNAAYYSPHGHILVLAGFGNLRGQMEVWDVKNYKLISKPVASDSTYFAWCPDGEHILTATCAPRLRVNNGYKIWHYTGSILHKYDVPSNAELWQVSWQPFLDGIFPAKTITYQAVPSEVPNEEPKVATAYRPPALRNKPITNSKLHEEEPPQNMKPQSGNDKPLSKTALKNQRKHEAKKAAKQEARSDKSPDLAPTPAPQSTPRNTVSQSISGDPEIDKKIKNLKKKLKAIEQLKEQAATGKQLEKNQLEKIQKETALLQELEDLELGI
B9: MYO1D (protein, UniProt O94832 1-1006)
chain: MAEQESLEFGKADFVLMDTVSMPEFMANLRLRFEKGRIYTFIGEVVVSVNPYKLLNIYGRDTIEQYKGRELYERPPHLFAIADAAYKAMKRRSKDTCIVISGESGAGKTEASKYIMQYIAAITNPSQRAEVERVKNMLLKSNCVLEAFGNAKTNRNDNSSRFGKYMDINFDFKGDPIGGHINNYLLEKSRVIVQQPGERSFHSFYQLLQGGSEQMLRSLHLQKSLSSYNYIHVGAQLKSSINDAAEFRVVADAMKVIGFKPEEIQTVYKILAAILHLGNLKFVVDGDTPLIENGKVVSIIAELLSTKTDMVEKALLYRTVATGRDIIDKQHTEQEASYGRDAFAKAIYERLFCWIVTRINDIIEVKNYDTTIHGKNTVIGVLDIYGFEIFDNNSFEQFCINYCNEKLQQLFIQLVLKQEQEEYQREGIPWKHIDYFNNQIIVDLVEQQHKGIIAILDDACMNVGKVTDEMFLEALNSKLGKHAHFSSRKLCASDKILEFDRDFRIRHYAGDVVYSVIGFIDKNKDTLFQDFKRLMYNSSNPVLKNMWPEGKLSITEVTKRPLTAATLFKNSMIALVDNLASKEPYYVRCIKPNDKKSPQIFDDERCRHQVEYLGLLENVRVRRAGFAFRQTYEKFLHRYKMISEFTWPNHDLPSDKEAVKKLIERCGFQDDVAYGKTKIFIRTPRTLFTLEELRAQMLIRIVLFLQKVWRGTLARMRYKRTKAALTIIRYYRRYKVKSYIHEVARRFHGVKTMRDYGKHVKWPSPPKVLRRFEEALQTIFNRWRASQLIKSIPASDLPQVRAKVAAVEMLKGQRADLGLQRAWEGNYLASKPDTPQTSGTFVPVANELKRKDKYMNVLFSCHVRKVNRFSKVEDRAIFVTDRHLYKMDPTKQYKVMKTIPLYNLTGLSVSNGKDQLVVFHTKDNKDLIVCLFSKQPTHESRIGELVGVLVNHFKSEKRHLQVNVTNPVQCSLHGKKCTVSVETRLNQPQPDFTKNRSGFILSVPGN
B10: Heterogeneous Nuclear Ribonucleoprotein D like (HNRNPDL) (protein, UniProt O14979 1-420)
chain: MEVPPRLSHVPPPLFPSAPATLASRSLSHWRPRPPRQLAPLLPSLAPSSARQGARRAQRHVTAQQPSRLAGGAAIKGGRRRRPDLFRRHFKSSSIQRSAAAAAATRTARQHPPADSSVTMEDMNEYSNIEEFAEGSKINASKNQQDDGKMFIGGLSWDTSKKDLTEYLSRFGEVVDCTIKTDPVTGRSRGFGFVLFKDAASVDKVLELKEHKLDGKLIDPKRAKALKGKEPPKKVFVGGLSPDTSEEQIKEYFGAFGEIENIELPMDTKTNERRGFCFITYTDEEPVKKLLESRYHQIGSGKCEIKVAQPKEVYRQQQQQQKGGRGAAAGGRGGTRGRGRGQGQNWNQGFNNYYDQGYGNYNSAYGGDQNYSGYGGYDYTGYNYGNYGYGQGYADYSGQQSTYGKASRGGGNHQNNYQPY

Protein sequences, listed by entry. Tags and fused reporters are not part of them.
UniProt P31749: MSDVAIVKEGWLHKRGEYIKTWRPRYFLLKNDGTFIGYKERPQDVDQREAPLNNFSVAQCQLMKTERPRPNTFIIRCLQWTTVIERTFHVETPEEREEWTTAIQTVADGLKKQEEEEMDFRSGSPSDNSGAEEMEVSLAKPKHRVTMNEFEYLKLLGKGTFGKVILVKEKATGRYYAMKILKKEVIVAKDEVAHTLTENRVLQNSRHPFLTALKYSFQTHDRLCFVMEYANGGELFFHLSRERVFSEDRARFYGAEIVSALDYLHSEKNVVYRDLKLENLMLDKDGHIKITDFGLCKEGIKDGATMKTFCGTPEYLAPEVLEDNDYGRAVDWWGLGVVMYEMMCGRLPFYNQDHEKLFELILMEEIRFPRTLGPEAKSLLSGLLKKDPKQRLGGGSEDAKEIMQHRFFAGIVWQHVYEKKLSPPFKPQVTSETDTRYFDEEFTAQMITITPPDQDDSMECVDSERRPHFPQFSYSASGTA
UniProt Q16643: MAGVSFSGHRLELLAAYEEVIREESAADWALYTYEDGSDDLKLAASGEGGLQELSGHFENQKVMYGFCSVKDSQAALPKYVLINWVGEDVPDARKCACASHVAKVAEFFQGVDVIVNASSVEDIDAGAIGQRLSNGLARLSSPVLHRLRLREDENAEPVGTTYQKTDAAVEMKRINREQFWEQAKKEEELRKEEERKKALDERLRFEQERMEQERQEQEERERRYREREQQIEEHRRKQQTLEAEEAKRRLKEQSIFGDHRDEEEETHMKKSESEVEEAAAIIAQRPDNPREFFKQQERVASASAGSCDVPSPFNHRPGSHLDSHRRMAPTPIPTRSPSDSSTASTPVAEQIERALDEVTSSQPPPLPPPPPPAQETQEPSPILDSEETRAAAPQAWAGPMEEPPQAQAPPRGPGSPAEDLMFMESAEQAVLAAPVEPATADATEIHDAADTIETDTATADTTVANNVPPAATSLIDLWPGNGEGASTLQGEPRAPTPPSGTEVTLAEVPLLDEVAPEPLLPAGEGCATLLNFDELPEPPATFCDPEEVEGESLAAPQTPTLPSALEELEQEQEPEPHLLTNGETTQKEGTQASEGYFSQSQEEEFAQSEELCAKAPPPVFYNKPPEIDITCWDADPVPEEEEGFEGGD
UniProt P11940: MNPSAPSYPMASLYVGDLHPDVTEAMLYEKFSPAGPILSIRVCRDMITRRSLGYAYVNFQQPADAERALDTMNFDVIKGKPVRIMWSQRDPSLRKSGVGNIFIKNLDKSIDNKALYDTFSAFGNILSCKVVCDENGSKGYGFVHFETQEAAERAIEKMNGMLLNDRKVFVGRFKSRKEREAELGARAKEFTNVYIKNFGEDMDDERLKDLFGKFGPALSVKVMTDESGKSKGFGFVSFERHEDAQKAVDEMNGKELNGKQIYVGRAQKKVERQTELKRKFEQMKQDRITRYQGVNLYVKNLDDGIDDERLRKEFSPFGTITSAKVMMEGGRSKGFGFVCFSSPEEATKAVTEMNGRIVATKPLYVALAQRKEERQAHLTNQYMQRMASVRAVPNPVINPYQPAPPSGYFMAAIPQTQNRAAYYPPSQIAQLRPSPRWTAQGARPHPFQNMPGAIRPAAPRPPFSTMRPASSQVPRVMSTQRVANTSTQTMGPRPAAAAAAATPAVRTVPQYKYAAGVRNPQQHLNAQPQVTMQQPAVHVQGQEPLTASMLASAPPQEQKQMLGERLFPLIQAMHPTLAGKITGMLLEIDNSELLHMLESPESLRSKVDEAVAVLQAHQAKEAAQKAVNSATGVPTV
UniProt P14635: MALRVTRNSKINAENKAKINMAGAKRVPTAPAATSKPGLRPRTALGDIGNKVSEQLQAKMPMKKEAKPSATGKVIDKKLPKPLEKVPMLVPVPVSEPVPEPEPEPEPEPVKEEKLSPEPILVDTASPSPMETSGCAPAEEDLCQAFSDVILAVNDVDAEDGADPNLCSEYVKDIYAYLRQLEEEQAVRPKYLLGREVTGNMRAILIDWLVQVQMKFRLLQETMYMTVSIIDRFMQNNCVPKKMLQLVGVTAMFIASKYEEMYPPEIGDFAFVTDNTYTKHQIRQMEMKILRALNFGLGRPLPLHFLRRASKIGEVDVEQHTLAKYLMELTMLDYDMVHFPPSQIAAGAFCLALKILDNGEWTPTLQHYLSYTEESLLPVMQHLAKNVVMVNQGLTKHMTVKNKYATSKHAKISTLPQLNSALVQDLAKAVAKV
UniProt P62258: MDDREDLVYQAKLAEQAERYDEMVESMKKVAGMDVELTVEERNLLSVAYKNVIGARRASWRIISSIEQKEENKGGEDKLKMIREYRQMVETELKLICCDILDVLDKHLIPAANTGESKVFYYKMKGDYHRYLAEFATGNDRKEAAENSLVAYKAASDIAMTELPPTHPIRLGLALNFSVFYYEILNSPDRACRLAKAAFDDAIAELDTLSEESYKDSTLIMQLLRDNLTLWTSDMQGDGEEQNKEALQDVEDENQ
UniProt P78527: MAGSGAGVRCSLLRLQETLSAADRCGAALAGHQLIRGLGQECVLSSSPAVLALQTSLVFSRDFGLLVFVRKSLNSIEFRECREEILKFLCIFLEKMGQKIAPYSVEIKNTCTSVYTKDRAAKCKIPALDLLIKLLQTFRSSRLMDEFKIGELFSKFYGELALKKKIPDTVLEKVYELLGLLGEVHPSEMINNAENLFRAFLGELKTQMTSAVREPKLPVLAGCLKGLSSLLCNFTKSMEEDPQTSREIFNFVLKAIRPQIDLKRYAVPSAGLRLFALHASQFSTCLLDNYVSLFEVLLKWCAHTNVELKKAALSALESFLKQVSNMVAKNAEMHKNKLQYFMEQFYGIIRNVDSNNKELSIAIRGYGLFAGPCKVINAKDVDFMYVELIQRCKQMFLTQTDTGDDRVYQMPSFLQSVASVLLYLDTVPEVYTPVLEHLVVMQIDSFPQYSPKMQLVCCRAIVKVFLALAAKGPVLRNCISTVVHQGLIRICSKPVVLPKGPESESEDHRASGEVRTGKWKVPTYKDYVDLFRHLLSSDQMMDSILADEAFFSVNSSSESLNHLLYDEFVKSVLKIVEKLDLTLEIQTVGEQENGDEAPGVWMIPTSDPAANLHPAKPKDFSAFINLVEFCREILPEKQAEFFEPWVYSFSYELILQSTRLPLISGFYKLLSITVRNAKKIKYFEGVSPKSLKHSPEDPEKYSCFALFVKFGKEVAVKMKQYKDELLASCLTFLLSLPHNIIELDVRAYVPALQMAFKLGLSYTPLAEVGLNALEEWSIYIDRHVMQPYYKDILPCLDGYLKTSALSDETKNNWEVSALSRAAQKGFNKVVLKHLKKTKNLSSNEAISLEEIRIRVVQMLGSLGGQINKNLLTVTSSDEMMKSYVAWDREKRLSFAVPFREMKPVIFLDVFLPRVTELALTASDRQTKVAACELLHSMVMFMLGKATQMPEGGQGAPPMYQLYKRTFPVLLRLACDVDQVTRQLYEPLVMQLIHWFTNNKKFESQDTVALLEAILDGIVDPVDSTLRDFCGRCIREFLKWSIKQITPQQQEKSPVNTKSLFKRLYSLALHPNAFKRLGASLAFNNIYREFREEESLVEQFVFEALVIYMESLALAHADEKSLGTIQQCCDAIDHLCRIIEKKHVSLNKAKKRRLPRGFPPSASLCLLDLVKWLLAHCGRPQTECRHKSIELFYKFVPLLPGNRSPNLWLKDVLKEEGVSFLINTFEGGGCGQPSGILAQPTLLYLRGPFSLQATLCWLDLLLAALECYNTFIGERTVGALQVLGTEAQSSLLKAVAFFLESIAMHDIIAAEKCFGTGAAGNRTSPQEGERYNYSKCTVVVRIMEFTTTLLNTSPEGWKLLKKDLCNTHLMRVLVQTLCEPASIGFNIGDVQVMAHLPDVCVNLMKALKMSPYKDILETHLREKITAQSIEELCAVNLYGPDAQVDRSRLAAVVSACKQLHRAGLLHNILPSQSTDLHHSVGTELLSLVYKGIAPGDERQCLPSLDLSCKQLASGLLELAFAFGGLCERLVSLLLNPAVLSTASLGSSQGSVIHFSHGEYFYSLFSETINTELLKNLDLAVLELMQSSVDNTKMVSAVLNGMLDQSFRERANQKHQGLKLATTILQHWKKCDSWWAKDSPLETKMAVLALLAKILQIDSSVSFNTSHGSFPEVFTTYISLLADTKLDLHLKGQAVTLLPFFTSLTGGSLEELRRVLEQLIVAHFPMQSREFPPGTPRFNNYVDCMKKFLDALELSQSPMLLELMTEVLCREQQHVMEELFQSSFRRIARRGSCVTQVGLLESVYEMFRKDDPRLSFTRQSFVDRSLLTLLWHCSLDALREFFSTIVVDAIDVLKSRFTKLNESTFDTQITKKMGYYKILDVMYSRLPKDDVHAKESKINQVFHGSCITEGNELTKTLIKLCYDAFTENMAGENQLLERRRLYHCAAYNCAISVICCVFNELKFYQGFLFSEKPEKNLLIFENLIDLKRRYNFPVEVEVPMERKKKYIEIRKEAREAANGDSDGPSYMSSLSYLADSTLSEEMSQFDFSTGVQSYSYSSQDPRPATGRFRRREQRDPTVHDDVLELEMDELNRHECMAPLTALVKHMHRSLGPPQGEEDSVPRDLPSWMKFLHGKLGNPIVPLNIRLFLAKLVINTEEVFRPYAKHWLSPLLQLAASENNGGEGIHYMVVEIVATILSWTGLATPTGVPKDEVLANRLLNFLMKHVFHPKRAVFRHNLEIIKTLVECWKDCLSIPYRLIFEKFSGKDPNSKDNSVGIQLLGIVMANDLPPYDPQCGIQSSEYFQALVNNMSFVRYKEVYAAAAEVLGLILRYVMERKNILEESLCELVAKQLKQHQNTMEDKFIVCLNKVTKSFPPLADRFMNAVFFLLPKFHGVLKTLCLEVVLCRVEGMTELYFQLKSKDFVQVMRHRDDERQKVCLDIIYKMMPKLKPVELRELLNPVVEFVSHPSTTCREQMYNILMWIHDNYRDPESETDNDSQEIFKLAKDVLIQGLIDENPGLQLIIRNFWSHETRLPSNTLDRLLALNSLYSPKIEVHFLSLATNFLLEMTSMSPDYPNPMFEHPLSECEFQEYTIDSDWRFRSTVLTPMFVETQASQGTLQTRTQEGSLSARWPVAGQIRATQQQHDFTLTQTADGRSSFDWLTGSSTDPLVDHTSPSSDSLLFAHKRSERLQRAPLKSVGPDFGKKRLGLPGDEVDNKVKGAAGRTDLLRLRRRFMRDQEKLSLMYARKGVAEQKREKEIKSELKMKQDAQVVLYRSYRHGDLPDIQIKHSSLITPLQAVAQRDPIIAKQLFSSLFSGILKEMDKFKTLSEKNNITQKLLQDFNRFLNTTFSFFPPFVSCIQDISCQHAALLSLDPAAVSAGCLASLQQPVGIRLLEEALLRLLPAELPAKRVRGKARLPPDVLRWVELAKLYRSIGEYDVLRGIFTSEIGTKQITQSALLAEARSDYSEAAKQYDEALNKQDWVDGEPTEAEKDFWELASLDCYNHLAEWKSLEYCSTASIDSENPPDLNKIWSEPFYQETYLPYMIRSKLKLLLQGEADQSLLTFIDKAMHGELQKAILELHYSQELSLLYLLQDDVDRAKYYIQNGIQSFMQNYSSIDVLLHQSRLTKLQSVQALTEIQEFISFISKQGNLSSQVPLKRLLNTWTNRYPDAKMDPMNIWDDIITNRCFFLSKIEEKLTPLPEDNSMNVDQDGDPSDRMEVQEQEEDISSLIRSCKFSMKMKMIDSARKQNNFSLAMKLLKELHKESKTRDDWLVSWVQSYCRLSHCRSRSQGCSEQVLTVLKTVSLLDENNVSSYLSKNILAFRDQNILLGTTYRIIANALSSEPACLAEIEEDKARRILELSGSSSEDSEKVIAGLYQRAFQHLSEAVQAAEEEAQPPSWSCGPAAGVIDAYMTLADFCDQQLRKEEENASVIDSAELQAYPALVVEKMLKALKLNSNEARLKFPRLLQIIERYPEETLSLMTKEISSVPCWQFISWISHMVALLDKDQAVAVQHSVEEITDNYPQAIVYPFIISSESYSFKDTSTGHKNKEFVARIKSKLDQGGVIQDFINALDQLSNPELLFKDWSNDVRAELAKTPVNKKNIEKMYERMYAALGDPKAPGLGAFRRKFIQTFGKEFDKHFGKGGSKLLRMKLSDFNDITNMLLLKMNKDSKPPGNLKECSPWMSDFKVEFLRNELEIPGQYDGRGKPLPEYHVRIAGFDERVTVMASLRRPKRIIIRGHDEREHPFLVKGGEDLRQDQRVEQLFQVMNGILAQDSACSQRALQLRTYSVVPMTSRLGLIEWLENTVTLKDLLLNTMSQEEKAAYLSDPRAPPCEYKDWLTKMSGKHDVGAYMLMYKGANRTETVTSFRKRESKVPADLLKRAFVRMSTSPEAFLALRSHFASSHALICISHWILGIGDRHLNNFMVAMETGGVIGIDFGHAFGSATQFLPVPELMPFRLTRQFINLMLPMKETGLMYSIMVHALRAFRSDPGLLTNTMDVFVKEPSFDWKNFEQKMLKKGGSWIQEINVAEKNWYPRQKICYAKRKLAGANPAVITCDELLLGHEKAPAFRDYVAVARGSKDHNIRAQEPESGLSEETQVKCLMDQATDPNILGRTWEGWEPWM

target: Akt1 (PKBα) (human) (UniProt P31749); experiment: affinity purification with mass spectrometry; SH-tagged Akt1 as bait; SILAC-labelled HEK293 cells arrested in G0 (serum starvation), G1/S (aphidicolin) and G2 (nocodazole) mixed 1:1:1; lysis in IP buffer (150 mM NaCl, 50 mM Tris-HCl pH 7.5, 1% NP-40); streptactin magnetic beads and anti-HA agarose in parallel at 4 °C, eluates pooled; LC-MS/MS, 1% G-FDR-fit, three replicates; hits of SH-tagged GFP subtracted

Molecule | binding
Karyopherin Beta 1 (KPNB1) (from UniProt Q14974 1-876) | binds
NOTCH2 (from UniProt Q04721 26-2471) | binds
Drebrin 1 (DBN1) (from UniProt Q16643 1-649) | binds
VCP (from UniProt P55072 1-806) | binds
CORO1C (from UniProt Q9ULV4 1-474) | binds
HSPA5 (from UniProt P11021 19-654) | binds
BUB3 (from UniProt O43684 1-328) | binds
NPM1 (from UniProt P06748 1-294) | binds
PABPPC1 (from UniProt P11940 1-636) | binds
CCNB1 (from UniProt P14635 1-433) | binds
SH3PX1 (from UniProt Q9Y5X1 1-595) | binds
TUBB4B (from UniProt P68371 1-445) | binds
Epiplakin 1 (from UniProt P58107 1-5088) | binds
SPTBN2 (from UniProt O15020 1-2390) | binds
IQGAP1 (from UniProt P46940 1-1657) | binds
TUBA1B (from UniProt P68363 1-451) | binds
YWHAE (from UniProt P62258 1-255) | binds
PRKDC (from UniProt P78527 1-4128) | binds
MYH9 (from UniProt P35579 1-1960) | binds
TUBB (from UniProt P07437 1-444) | binds
MAPT (from UniProt P10636 1-758) | binds

target: Akt1 (PKBα) (human) (UniProt P31749); experiment: as above; remark: another data set of the same source

Molecule | binding
B1 | binds
B2 | binds
B3 | binds
B4 | binds
B5 | binds
B6 | binds
B7 | binds
B8 | binds
B9 | binds
B10 | binds
